Laboratory results: PubChem BioAssay AID1259254 (NCATS, 2017)
In all, the deposit lists about 59,000 reagents; this is a random part of them. Over the whole deposit, about 1,550 (2.6%) were called active. 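G2 share is only a proxy for re-replication; each gene was hit by three separate siRNAs, and active genes were retested.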 Not all columns of the deposit are shown. Not given: the amount of reagent.

Purpose: 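Gene knock-downs that lead to re-replication, shown by excess G2 DNA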 (primary screen)
Cells: human HCT116 colorectal cancer cells
Knock-down reagent: single siRNA against human genes
Duration: 3 days
Measured: 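Imaged Hoechst DNA stain sorts each cell into a cycle phase by DNA amount; per plate, G2 fraction set to 0% for non-targeting and 100% for GMNN siRNA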
Scale: G2 robust z-score and G2 cells, % of GMNN control: higher = more G2 cells, more excess DNA replication
Rule for the call: 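An siRNA counts as active if its G2 robust z-score lies at least 5 MADs above the screen median; here such calls match roughly 38% of GMNN control or more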

UNC93A [SID160733537] → G2 robust z-score: 2.05; G2 cells, % of GMNN control: 17.4; call: inactive
UNC93A [SID160741636] → G2 robust z-score: 0.417; G2 cells, % of GMNN control: 5.9; call: inactive
UNC93A [SID160741637] → G2 robust z-score: 2.37; G2 cells, % of GMNN control: 19.6; call: inactive
DGAT2L7P [SID160733983] → G2 robust z-score: 0.976; G2 cells, % of GMNN control: 9.83; call: inactive
DGAT2L7P [SID160769855] → G2 robust z-score: -0.268; G2 cells, % of GMNN control: 1.08; call: inactive
DGAT2L7P [SID160769856] → G2 robust z-score: 1.08; G2 cells, % of GMNN control: 10.5; call: inactive
ZNF589 [SID160740733] → G2 robust z-score: -0.21; G2 cells, % of GMNN control: 1.49; call: inactive
ZNF589 [SID160740734] → G2 robust z-score: 0.127; G2 cells, % of GMNN control: 3.86; call: inactive
ZNF589 [SID160740735] → G2 robust z-score: -0.0981; G2 cells, % of GMNN control: 2.28; call: inactive
FSCB [SID160751686] → G2 robust z-score: 2.86; G2 cells, % of GMNN control: 23.1; call: inactive
FSCB [SID160751687] → G2 robust z-score: -0.0432; G2 cells, % of GMNN control: 2.66; call: inactive
FSCB [SID160751688] → G2 robust z-score: 0.0324; G2 cells, % of GMNN control: 3.2; call: inactive
AHI1 [SID160733556] → G2 robust z-score: -0.636; G2 cells, % of GMNN control: -1.51; call: inactive
AHI1 [SID160742198] → G2 robust z-score: -0.543; G2 cells, % of GMNN control: -0.85; call: inactive
AHI1 [SID160742199] → G2 robust z-score: 4.2; G2 cells, % of GMNN control: 32.5; call: inactive
PRELID1P6 [SID160726160] → G2 robust z-score: -1.1; G2 cells, % of GMNN control: -4.77; call: inactive
PRELID1P6 [SID160726161] → G2 robust z-score: 1.34; G2 cells, % of GMNN control: 12.4; call: inactive
PRELID1P6 [SID160770463] → G2 robust z-score: -0.425; G2 cells, % of GMNN control: -0.022; call: inactive

Laid out differently: 2 of the entries above
gene,PubChem SID,G2 robust z-score,"G2 cells, % of GMNN control",call
UNC93A,SID160741637,2.37,19.6,inactive
DGAT2L7P,SID160733983,0.976,9.83,inactive
